Measurements from US10494397B2, “Rebaudioside analogs” (PepsiCo, Inc., priority 2016, dated 2019).
For at least one compound, name, drawing or mass did not settle the structure.

Legend:
[1] = tested on: Tasters; test: Sensory evaluation of test material as a sweetener (taster panel, scale of 1 to 10); type: in vivo, human
Source text: Sample preparation protocol for testing material as a sweetener: Tasters wore noseclips and were blinded to the identity of the test material. Tasters sampled 400 ppm Rebaudioside A and 6.5 Brix sucrose prior to the test material. Reb A 400 ppm was assigned a 5 on the scale of 1 to 10 as shown in FIG. 8 and sucrose (6.5%) was assigned a 10 on the same scale. Tasters were asked to rinse their mouths 5 times with water between tasting each sample. Tasters were then given the test article and asked to rank the test article for sweetness on the noted scale. Tasters were also asked to provide comments about bitterness, linger, flavors, and any other perceptions.
Numerical scores from all tasters were averaged and, taken together with comments regarding sweet quality, bitterness and off-tastes, converted into the symbols “−,” “+,” “++,” and “+++” to indicate whether a given characteristic was not observed or only minimally observed (−) or highly observed (+++). For example, a sample having a “−” in both sweet intensity and bitterness should be understood as a sample having minimal or no sweetness and minimal or no bitter flavor. By contrast, a sample having a “+++” in both sweet intensity and bitterness should be understood as a sample having highly observed sweet intensity and bitterness. […]

[2] = cited from earlier work

## C=C1C[C@@]23CC[C@H]4[C@@](C)(CCC[C@@]4(C)C(=O)O[C@@H]4O[C@H](CO)[C@@H](O)[C@H](O)[C@H]4O)[C@@H]2CC[C@]1(O[C@@H]1O[C@H](CO)[C@@H](O)[C@H](O[C@@H]2O[C@H](CO)[C@@H](O)[C@H](O)[C@H]2O)[C@H]1O[C@@H]1O[C@H](CO)[C@@H](O)[C@H](O)[C@H]1O)C3 [Rebaudioside A]
[1]; based upon temporal profile (sweet onset, linger) and attributes such as syrupy, round, clean
  Sweet Quality: +
[1]; taster comments and scores converted into symbols
  Bitterness: +
[2]
  Sweetness relative to sucrose: 200 to 300 times the sweetness of sucrose
